The match of structure and compound is tentative.
Biological target: purified human IDO protein (Homo sapiens (Human), UniProt P14902, E119G/P110S)
Assay: Enzymatic IDO assay (kynurenine production, absorbance at 480 nm)
Type: biochemical
Conditions: read-out: hIDO IC50; recombinant human IDO, enzymatic activity

Amino acid sequences for entries named in this document (tags omitted).
UniProt P14902, whole entry P110S/E119G: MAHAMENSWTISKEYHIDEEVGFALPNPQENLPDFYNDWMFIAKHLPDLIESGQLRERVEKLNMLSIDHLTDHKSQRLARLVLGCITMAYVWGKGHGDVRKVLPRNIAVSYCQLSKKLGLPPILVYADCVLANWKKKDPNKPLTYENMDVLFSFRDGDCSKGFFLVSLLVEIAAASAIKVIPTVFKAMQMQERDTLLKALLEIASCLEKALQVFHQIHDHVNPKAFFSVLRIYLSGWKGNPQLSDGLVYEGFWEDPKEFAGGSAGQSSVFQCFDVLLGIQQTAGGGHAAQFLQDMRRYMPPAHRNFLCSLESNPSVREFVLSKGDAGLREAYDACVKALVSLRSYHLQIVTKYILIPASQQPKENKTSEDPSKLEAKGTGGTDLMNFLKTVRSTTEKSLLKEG

IC50: 1 to 10 µM
Compound: Cc1coc(C)c1C(O)CC1c2c(F)cccc2-c2cncn21 (stereo not shown)

From patent US10233190B2, “IDO inhibitors” (NewLink Genetics Corporation, priority 2011, dated 2019)
